Not every detail of the peptide structures is certain; ends, links or a residue may be inferred.
Test system: kidneys from donor rats (F 344) transplanted in recipient (Wistar-Furth) rats
Experiment: Test 1.4: suppression of organ-rejection (kidney transplant)
Assay type: in vivo
Details: rat kidney transplant

Measured: TEST 1.4 survival rate in days (100% survival)

C/C=C/C[C@@H](C)[C@@H](O)[C@H]1C(=O)N[C@@H](CC)C(=O)N(C)CC(=O)N(C)[C@@H](CC(C)C)C(=O)N[C@@H](C(C)C)C(=O)N(C)[C@@H](CC(C)C)C(=O)N[C@@H](C)C(=O)N[C@H](COC(C)=O)C(=O)N(C)[C@@H](CC(C)C)C(=O)N(C)[C@@H](CC(C)C)C(=O)N(C)[C@@H](C(C)C)C(=O)N1C [Example 1, [(O-acetyl)-(D)Ser]^8 -Cyclosporine]
> 200 days: dosage 5.0 mg/kg p.o. for 14 days | dosage 7.5 mg/kg p.o. for 14 days | dosage 10.0 mg/kg p.o. for 14 days
